The chains behind the UniProt entries cited, without tags or fusion partners.
UniProt Q9CWH6: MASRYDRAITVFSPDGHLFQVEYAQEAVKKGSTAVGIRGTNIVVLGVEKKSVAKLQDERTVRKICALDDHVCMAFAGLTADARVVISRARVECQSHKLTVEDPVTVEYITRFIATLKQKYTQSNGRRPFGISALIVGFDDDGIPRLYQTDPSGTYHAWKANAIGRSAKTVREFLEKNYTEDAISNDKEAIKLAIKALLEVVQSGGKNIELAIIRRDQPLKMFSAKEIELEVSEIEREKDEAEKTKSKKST

According to article doi:10.1101/384354:

B1: DAZL (deleted in azoospermia) (protein, UniProt Q64368 1-298)
chain: MSATTSEAPNSAVSREASTQSSSATTSQGYVLPEGKIMPNTVFVGGIDVRMDETEIRSFFARYGSVKEVKIITDRTGVSKGYGFVSFYNDVDVQKIVESQINFHGKKLKLGPAIRKQNLCTYHVQPRPLIFNPPPPPQFQSVWSSPNAETYMQPPTMMNPITQYVQAYPPYPSSPVQVITGYQLPVYNYQMPPQWPAGEQRSYVIPPAYTTVNYHCSEVDPGADILPNECSVHDAAPASGNGPQKKSVDRSIQTVVSCLFNPENRLRNSLVTQDDYFKDKRVHHFRRSRAVLKSDHLC
B2: SPAG1 (Sperm-associated antigen 1) (protein, UniProt Q80ZX8 1-901)
chain: MTAKAKDCPSLWGFGTTKTFKIPIEHLDFKYIENCSDVKHLEKILYVLRSGEEGYYPELTEFCEKCLTNLAPKSRALRKDKPAETASSFSAEEWEKIDSDLKSWVSEIKREENTCHFHDPENHPGVEDPLPPVRGSTCCPHSGKETYSKSKTAKKRIPRDYAEWDKFDVEKECSKIDEDYKEKTVINNKAHLSKIETKIETAGLTEKEKSFLANREKGKGNEAFYSGDYEEAVMYYTRSLSALPTAIAYNNRAQAEIKLQRWSSALEDCEKALELDPGNVKALLRRATTYKHQNKLQEAVDDLRKVLQVEPDNDLAKKTLSEVERDLKNSEPVSELQTKGKRMVIEEVENSGDEGGKGSADEREDGGSDEAAMGNIQKKLMVRRSEGGRRSRRGRTPGPRAEQQGGLRETATASTGDSHYPEEPRAADNPSGLKRRGNELFRGGQFAEAAAQYSVAIAQLEPTGSANADELSILYSNRAACYLKEGNCRDCIQDCNRALELHPFSVKPLLRRAMAYETLEQYRNAYVDYKTVLQIDCGIQLASDSANRIARILTELDGSKWRERLPPIPAVPTSEPLRVWLPAAETPDQDPCPNNCMPSITDEKMFQALKEEGNQLVKDKNYKDAISKYNECLKINSKACAIYTNRALCYLKLGQFEEAKLDCEQALQIDGENVKASHRLALAQKGLENCRESGVDPSQVLLSPDSSEAARHLDTKNDTAPPSKGRERRRIQVQEVDGSSDEEPERPAEASATSAPARDGVEDGGSAEPAEKLDVSKPTNAYEFGQVLSTISARKDEEACAHLLAITAPKDLPLLLSNKLEGDTFLLLIQSLKSHLVAKDPSLVYEHLLYLSKAERFKTMLTLINKGQKEQMAQLFDGLSDTQSDGLTAEDVQALRRQYEL
B3: SPATA5 (Spermatogenesis-associated protein 5) (protein, UniProt Q3UMC0 1-893)
chain: MSSKKNRKRQKEGAEGASPSLSAAPSRSGTSTPFAQPSPAAPGMLVVTNFLEKVDGKVPKTFQNSLVHLGLNTMKSANICIGRPVLLTSLDGKQEVYTAWPVAGFPGGKVGLSEMAQKNVGVRAGETIQVQPLLGAVLQAQEMDLALSDKDKEINEEELTGCILRKLDGKIVLPGNFLYCTFYGRLCKLQVLQVKGTDGTTLGKLQSASGTDAQGMASEHSSMESSDVDLSFQLSQLDLKEPQSPSSQSTPCKPTNDRTVNKAGEVLLDVTQSPRDGSGLGLEESTGLKCSFDSSKEGNTQPVSEEKLLKPASAGTKSNTDTFYFISSTTRINLRKICTNSKEQDSQFKVTYDMIGGLNSQLKAIREIIELPLKQPELFKSYGIPAPRGLLLYGPPGTGKTMIARAVANEVGAYVSVINGPEIISKFYGETEARLRQIFAEATLRHPSIIFIDELDALCPKREGAQSEVEKRVVASLLTLMDGIGSEGSEGRVLVLGATNRPQALDAALRRPGRFDKEIEIGIPNAQDRLDILQKLLRRVPHLLTKAELLRLANNAHGYVGADLKALCNEAGLHALRRVLRKQPNLPDSKVAGMVKITLNDFLQGMNDIRPSAMREVAIDVPNVSWSDIGGLENIKLKLKQAVEWPLKHPKSFNRMGIQPPKGVLLYGPPGCSKTMIAKALANESGLNFLAIKGPELMNKYVGESERAVREIFRKARAVAPSIIFFDELDALAVERGSSSGAGNVADRVLAQLLTEMDGIEQLKNVTVLAATNRPDRIDKALMRPGRIDRIIYVPLPDAATRREILNLQFHSMPISNEVDLDELVLQTDTYSGAEIIAVCKEAALLALEENIKADCIMKRHFTQALSIVTPRIPESLRRFYEDYQEKSGLHTV
B4: SPATA20 (Spermatogenesis-associated protein 20) (protein, UniProt Q80YT5 1-790)
chain: MSHHSSPPPKHKGEHKGHGLPRGSERGSSSRDKDRSATTVSSSAPMPAGGKSSRTNCPPPAPPKTVNRLINEKSPYLLQHAYNPVDWYPWGQEAFDKAKKENKPIFLSVGYSTCHWCHMMEEESFQNEEIGRLLNENFICVMVDREERPDVDKVYMTFVQATSSGGGWPMNVWLTPGLQPFVGGTYFPPEDGLTRVGFRTVLMRICDQWKLNKNTLLENSQRVTTALLARSEISVGDRQIPASAATMNSRCFQQLDEGYDEEYGGFAEAPKFPTPVILNFLFSYWLSHRLTQDGSRAQQMALHTLKMMANGGIQDHVGQGFHRYSTDRQWHIPHFEKMLYDQAQLSVVYTQAFQISGDEFYADVAKGILQYVTRTLSHRSGGFYSAEDADSPPERGMKPQEGAYYVWTVKEVQQLLPEPVVGASEPLTSGQLLMKHYGLSEVGNINSSQDPNGELHGQNVLMVRYSLELTAARYGLEVEAVRALLNTGLEKLFQARKHRPKAHLDNKMLAAWNGLMVSGFAVTGAALGMEKLVAQATSGAKFLKRHMFDVSSGRLKRTCYAGTGGTVEQSNPPCWGFLEDYAFVVRGLLDLYEASQESSWLEWALRLQDTQDKLFWDPRGGGYFCSEAELGADLPLRLKDDQDGAEPSANSVSAHNLLRLHSFTGHKDWMDKCVCLLTAFSERMRRVPVALPEMVRTLSAQQQTLKQIVICGDPQAKDTKALLQCVHSIYVPNKVLILADGDPSSFLSRQLPFLSSLRRVEDRATVYIFENQACSMPITDPCELRKLLHQ
B5: TDRD1 (protein, UniProt Q99MV1 1-1172)
chain: MMPRNNLEASTCKMAEPFNFEKKESKPPPQDPLRSPVAQHNHPTFRLKSPENGNTKNNFLLCEQNKQYLASQEDSSVVSSNPAVVNGEVGGSKGDRKPPPTGNPVSPLSLGNSSPPNQVKTKPSSNVTPEKSKKSHKLFENALSVNNPALFNSLGPPLRSTTCHRCGLFGSLRCSQCKQTYYCSTACQRRDWSSHSTICRPVQQSLNKLEDNKSPFETKAIEVKSEVDCPPGVTKEITAGAERVMFSDLRSLQLKKTMEIKGTVTEFKHPSNFYIQLYSSEVLENMNQLSTSLKETYANVVPEDGYLPVKGEVCVAKYTVDQTWNRAIVQAVDVLQRKAHVLYIDYGNEEMIPIDSVHPLSRGLDLFPPSAIKCCVSGVIPTAGEWSEGCVAAVKALLFEQFCSVKVMDILEEEVLTCAVDLVLQSSGKQLDHVLVEMGYGVKPGEQSSTEQSVDHSALEDVGRVTVESKIVTDRNALIPKVLTLNVGDEFCGVVAHIQTPEDFFCQQLQSGHKLAELQESLSEYCGHVIPRSDFYPTIGDVCCAQFSEDDQWYRASVLAYASEESVLVGYVDYGNFEILSLKRLCPIIPKLLDLPMQALNCVLAGVKPSLGIWTPEAVCVMKEMVQNRMVTVRVVGMLGTRALVELIDKSVAPHVSASKALIDSGFAIKEKDVADKGSSMHTASVPLAIEGPAEALEWTWVEFTVDETVDVVVCMMYSPGEFYCHFLKDDALEKLDDLNQSLADYCAQKPPNGFKAEIGRPCCAFFSGDGNWYRALVKEILPSGNVKVHFVDYGNVEEVTTDQLQAILPQFLLLPFQGMQCWLVDIQPPNKHWTKEATARFQACVVGLKLQARVVEITANGVGVELTDLSTPYPKIISDVLIREQLVLRCGSPQDSLMSRPANQHKQIDSHRVQASPSAEQWKTMELPVNKTIAANVLEIISPALFYAIPSEMSENQEKLCVLAAELLEHCNAQKGQPAYRPRTGDACCAKYTNDDFWYRAIVLETSESDVKVLYADYGNIETLPLSRVQPIPASHLELPFQIIRCSLEGPMELNGSCSQLVMELLRNAMLNQSVVLSVKAISKNVHAVSVEKCSENGMINIAENLVMCGLAENLTSKRKSASTKEIPHSRDCCCTELQKQIEKHEQILLFLLNNPTNQSKFTEMKKLLRS
B6: TDRD9 (protein, UniProt Q14BI7 1-1383)
chain: MLRKLTVDQINDWFTIGKTVTNVELLGLPPAFPAEAPREEVQRSEEVPNEDPTAQAQVPVKATAPARPASTSGRSLSQRSSEMEYINKYRQLEEQELDIYGQDQPPSGPGLRSPLAKLSNVACIPETTYKYPDLPINRCKEEVISLIESNSVVIIHGATGSGKSTQLPQYVLDHYTQRSAFCNIVVTQPRKIGASSIARWISKERSWTLGGLVGYQVGLEKIATEDTRLIYMTTGVLLQKIVSAKSLMEFTHIFIDEVHERTEEMDFLLLVVRKLLRTNSRFVKVVLMSATINCKQFADYFAVPVQNKMNPAYVFEVEGKPHAIEEYYLNDLGHIYHSGLPYRLEEPVITKDVYEVAVSLIQMFDDLDMKESGNKTWSGAQFVSERSSVLVFLPGLGEINYMHELLTNMIHKRLQVYPLHSSVTLEEQNNVFLSPVPGYRKIILSTNIAESSVTVPDVKYVIDFCLTRTLVCDEDTNYQSLRLSWASKTSCDQRKGRAGRVSKGYCYRLIPRDFWDSAIPDHVVPEMLRCPLGSTILKVKLLDMGEPRALLATALSPPSLSDIERTILLLKEVGALAVSGQREDENPHDGELTFLGRVLAQLPVSQQLGKLVVLGHVFGCLDECLIIAAALSLKNFFTMPFRQHLDGYRNKVHFSGSSRSDCLALVEAFRAWQACRQRGELRRPKDELDWGRLNYIQIKRIREVAELYEELKNRISQFNMFVGPHHPVLDQEYPYKQRFILQVVLAGAFYPNYFTFGQPDEEMAVRELAGKDPKTTVVLKHIPPYGFLYYKQLQSLFRQCGQVKSIVFDGAKAFVEFSRNPTERFKTLPAVNLAVKMSQLKVSLELSVHAAEEIEGKVQGGSVSKLRNTRVNVDFQKQTVDPMQVSFNTLDRPRTVADLLLTIDVTEVVEVGHFWGYRIDERNAELLKQLTAEINRLELVPLPIHPHPDLVCLAPFTDYNKESYFRAQILYVSGNSAEVFFVDYGNRSHVDLDLLREIPCQFLELPFQALEFKICKMRPSAKSLICGEHWSGGAHGRFAALVGGCPLLVKVFSIVHSVLHVDVYRYSGAQDAVNVRDVLIREGYAELAEESYESKQSYEVLKGFFAKSVDTMPDGSVSSPLKDDEKHLLRILLESFASNRLGAPNCKAVLHGPFNPYELKCHSLTRISKFRCVWIEKESINSVVISDSPADLHQRMLVAASLSVNETGSTMLLRETSLMPHIPGLPALLSMLFAPVMELRVDREGKCYTGVLCGLGWNSATEAPILPEHDIELAFDVRLNVEDIVEINILRAAINKLVCDGPNGSKYLGPERIAQLQENARQKLLGLFCRLKPREKITPQWHEKPYEWNQVDPRLIMEQAEPEGSPGKSTSLYQLHTPVVLSP
B7: MAEL (protein, UniProt Q8BVN9 1-434)
chain: MPNRRASRNAYYFFVQEKIPELRRRGLPVARVADAIPYCSADWALLREDEKEKYSEMAREWRAAQGKDSGPSEKQKLVSTPLRRPGMLVPKPSISPPDMSNLSIKSDQALLGGIFYFLNIFSHGELPPHCEQRFLPCEIGCVKYSLQEGIMADFHSFIHPGEIPRGFRFHCQAASDSSHKIPISNFEFGHDQATVLQNLYKFIHPNPGNWPPIYCKSDDRARVNWCLKRMERASEIRQDLELLTVEDLVVGIYQQKFLKEPSKTWVRSLLDVAMWDYSSNTRCKWHEENDILFCALAVCKKIAYCISNSLATLFGIQLTGAHVPLQDYEASNSVTPKMVVLDAGRYQKLRVESPGFCHFNSYNQEQRSNTSTGYYPSGVKISGPHSSVRGRGITRLLESISNSSNNIHRFSSCETSLSPYTPQKDGYKPFSSFS

Target: PSMA8 (testis-specific α4s subunit of the spermatoproteasome) (mouse (endogenous in testis)) (UniProt Q9CWH6)
Assay: affinity purification with mass spectrometry

binding, binds:
B1, B2, B3, B4, B5, B6, B7

These are yes or no findings as the source states them, for the method shown. In cells and extracts the contact can be indirect. A yes stands for co-enrichment or nearness to the bait. Other partners may have been found.
